# Results taken from PubChem BioAssay AID651679 (Broad Institute, 2012).
# Chains of the proteins cited; added tags and fusions are not shown. Lines headed by an entry give the natural chain unless they say otherwise; changes in a name come on top.
# UniProt P9WQ81: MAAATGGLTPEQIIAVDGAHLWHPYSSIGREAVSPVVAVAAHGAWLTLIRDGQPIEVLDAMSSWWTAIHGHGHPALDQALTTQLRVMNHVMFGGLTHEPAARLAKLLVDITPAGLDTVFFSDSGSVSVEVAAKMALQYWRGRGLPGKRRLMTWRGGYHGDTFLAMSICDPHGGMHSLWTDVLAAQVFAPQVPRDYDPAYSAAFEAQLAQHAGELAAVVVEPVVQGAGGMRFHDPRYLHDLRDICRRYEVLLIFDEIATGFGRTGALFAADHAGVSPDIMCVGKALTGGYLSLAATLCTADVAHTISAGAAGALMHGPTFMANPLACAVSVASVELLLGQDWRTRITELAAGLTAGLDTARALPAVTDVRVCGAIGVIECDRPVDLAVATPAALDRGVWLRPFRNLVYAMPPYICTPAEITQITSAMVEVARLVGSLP
# Inconclusive results, whose numbers are uncertain, are shown with a selection of clear calls. Calls of active or inactive are those of the source. How the calls were made is not given here.
# Molecular target: Adenosylmethionine-8-amino-7-oxononanoate aminotransferase (Mycobacterium tuberculosis (strain ATCC 25618 / H37Rv)) (UniProt P9WQ81)
# Test: Mtb BioA enzyme inhibitors, dose response, biochemical, plate reader, cherry-pick samples, set 03 (AID 651679);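 further: top concentration of the dilution series was 10 µM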
# Settings: purified BioA enzyme
row,Structure (SMILES),max activity
1,O=C(C1CC1)N1CC[C@@H]2[C@H](CO)Nc3ccc(Br)cc3[C@@H]21,inconclusive: -4.19%
2,CN1c2ccc(-c3ccccc3)cc2[C@H]2[C@H](CCN2C(=O)Cc2ccccn2)[C@H]1CO,inconclusive: -0.56%
3,COCCNC(=O)C[C@@H]1CC[C@@H]2[C@H](COc3ccc(NC(=O)Nc4cccc(F)c4)cc3C(=O)N2C)O1,inconclusive: 0.973%
4,Cn1nnc2cc(C(=O)N3CCC(c4ccccc4)C3)ccc21 (centres undefined),inactive: -9.54% [at 10 µM]
